# According to paper PMC7610266:
# For at least one entry, the source does not settle the construct or the ends of the probe. At least one result comes from cells or an extract, where the contact may be indirect.
# Target: p53 (UniProt P04637)
# Assay: EMSA supershift
# Conditions: anti-p53, SK-HEP-1 nuclear extract; EMSA: LightShift kit, room temperature 30 min; protein in an extract; label: biotin
sequence,measurement,value
GAGCTGGAGCGCCCAGGGCATGTCCGCCGA (double strand) [lnc-Ip53 p53RE probe],binding result,binds
